The values that follow come from patent US20070265189A1.

Chains of the proteins cited; added tags and fusions are not shown. Lines headed by an entry give the natural chain unless they say otherwise; changes in a name come on top. Residues count along the entry.
UniProt P06213, residues 28-956: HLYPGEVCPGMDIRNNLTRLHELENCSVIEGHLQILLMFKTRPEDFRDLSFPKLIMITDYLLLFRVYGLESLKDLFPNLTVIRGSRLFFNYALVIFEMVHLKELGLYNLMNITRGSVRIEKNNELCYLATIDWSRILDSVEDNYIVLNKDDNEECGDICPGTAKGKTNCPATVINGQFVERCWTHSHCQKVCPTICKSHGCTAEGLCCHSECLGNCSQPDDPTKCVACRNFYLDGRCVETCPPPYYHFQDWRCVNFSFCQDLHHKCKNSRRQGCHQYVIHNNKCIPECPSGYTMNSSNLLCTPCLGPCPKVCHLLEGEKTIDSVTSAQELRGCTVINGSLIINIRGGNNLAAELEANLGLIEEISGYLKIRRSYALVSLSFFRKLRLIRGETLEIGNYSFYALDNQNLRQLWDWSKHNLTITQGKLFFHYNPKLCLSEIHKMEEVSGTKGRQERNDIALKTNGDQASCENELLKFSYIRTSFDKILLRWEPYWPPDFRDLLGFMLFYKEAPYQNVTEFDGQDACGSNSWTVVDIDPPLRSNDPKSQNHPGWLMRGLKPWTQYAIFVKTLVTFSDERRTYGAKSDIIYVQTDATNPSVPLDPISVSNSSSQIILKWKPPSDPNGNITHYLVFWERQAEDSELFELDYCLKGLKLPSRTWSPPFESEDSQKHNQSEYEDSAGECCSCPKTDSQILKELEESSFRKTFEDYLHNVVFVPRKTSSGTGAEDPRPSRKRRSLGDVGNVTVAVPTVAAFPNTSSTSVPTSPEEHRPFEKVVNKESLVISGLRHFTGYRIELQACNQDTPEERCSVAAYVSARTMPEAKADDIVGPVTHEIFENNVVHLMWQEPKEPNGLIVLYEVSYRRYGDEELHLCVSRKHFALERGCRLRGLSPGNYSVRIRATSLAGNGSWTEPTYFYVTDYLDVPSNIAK
UniProt P08069, residues 31-935: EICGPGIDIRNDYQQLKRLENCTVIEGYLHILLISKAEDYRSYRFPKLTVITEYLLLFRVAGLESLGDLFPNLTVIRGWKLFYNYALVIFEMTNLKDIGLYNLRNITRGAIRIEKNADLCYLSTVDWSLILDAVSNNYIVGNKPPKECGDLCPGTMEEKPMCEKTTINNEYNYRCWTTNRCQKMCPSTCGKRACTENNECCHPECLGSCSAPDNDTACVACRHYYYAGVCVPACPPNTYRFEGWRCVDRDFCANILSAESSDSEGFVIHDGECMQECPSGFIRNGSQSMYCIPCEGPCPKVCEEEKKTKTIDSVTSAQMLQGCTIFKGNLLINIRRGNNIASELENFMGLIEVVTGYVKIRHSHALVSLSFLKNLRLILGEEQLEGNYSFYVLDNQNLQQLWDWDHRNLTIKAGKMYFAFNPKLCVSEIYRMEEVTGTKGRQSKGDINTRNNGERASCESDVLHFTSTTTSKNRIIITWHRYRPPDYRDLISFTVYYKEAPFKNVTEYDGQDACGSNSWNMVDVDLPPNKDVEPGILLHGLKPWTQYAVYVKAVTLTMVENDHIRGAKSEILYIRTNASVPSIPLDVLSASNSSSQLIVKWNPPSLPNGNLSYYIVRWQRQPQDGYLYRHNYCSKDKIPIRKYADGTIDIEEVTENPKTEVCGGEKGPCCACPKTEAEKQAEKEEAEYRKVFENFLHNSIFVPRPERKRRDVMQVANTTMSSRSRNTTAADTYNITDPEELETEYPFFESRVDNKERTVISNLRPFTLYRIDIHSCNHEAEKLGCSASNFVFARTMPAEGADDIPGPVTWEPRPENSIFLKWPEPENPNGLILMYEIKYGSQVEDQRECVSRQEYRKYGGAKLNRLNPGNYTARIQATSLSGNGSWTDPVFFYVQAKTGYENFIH

No constants are given. Whether binding was seen depends on the method and setting. Some results given as binding are weak or reduced against the parent protein; the word gives no strength.

For assay [1], the target named is soluble human insulin receptor-immunoglobulin heavy chain chimera (sIR-Fc; Bass et al., 1996) (human) (UniProt P06213). As to the kind of experiment: FP competition vs FITC-RP9, sIR-Fc.
Assay [2] deals with recombinant human IGF-1R (rhIGF-1R) (human) (UniProt P08069). As to the kind of experiment: TR-FRET competition vs b-20E2, rhIGF-1R.

B1: RP9 (minus terminal lysines) (peptide)
peptide: GSLDESFYDWFERQLG
For the molecule B1, the binding entry in assay [1] is recorded as “binds”.

B2: G33 (peptide)
peptide: GIISQSCPESFYDWFAGQVSDPWWCW
With B2, the binding result in assay [2] is “binds”.
